These results are taken from patent publication US10561661B2, “Purine derivative compounds for medical use” (MANROS THERAPEUTICS, priority 2014, dated 2020).

Protein sequences, listed by entry. Tags and fused reporters are not part of them. Lines headed by an entry give the natural chain unless they say otherwise; changes in a name come on top. Chains listed by the source or under a name are the forms on record and can include a tag or linker.
UniProt P13569, with tags, fused parts or gaps DEL508-508: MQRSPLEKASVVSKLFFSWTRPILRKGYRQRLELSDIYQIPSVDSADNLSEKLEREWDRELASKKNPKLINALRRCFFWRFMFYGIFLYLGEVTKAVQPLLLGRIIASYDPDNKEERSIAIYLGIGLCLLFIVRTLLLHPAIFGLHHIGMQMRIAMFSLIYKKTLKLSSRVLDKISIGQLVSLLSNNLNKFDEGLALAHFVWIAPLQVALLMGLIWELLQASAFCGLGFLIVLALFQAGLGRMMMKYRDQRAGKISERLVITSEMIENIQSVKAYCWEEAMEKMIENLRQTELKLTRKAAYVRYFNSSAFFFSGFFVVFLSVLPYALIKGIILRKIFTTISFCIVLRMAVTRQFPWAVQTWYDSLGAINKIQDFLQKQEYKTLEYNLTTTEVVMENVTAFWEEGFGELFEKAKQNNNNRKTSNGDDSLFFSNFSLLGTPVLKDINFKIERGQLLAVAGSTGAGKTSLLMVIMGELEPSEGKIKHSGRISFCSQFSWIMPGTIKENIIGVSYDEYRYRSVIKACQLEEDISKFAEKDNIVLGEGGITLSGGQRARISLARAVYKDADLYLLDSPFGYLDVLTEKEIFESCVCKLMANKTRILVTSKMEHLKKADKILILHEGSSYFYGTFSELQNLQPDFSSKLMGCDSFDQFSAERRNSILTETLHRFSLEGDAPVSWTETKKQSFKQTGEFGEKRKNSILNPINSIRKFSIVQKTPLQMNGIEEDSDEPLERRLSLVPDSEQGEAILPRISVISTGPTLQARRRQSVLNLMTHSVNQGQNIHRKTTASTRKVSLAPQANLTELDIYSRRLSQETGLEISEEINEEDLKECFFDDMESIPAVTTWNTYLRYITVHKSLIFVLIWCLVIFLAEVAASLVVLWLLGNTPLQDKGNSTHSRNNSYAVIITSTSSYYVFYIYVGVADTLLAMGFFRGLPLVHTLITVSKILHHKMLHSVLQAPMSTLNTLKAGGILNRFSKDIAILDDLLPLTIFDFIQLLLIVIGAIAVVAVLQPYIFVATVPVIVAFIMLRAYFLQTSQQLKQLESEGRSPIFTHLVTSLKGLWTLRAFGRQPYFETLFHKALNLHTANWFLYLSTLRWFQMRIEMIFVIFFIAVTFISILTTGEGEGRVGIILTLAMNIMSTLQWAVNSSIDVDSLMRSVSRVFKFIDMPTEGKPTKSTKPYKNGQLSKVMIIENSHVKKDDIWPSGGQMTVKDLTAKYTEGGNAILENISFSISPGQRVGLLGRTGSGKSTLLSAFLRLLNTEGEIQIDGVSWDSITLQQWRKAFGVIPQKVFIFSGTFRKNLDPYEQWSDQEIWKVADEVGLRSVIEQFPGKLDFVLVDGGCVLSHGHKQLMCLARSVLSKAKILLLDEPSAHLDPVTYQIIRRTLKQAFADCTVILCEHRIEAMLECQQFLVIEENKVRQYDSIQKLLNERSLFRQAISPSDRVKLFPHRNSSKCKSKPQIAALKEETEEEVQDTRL

For orientation: IC50 means the point on the concentration scale where inhibition reaches its midpoint. A high value points to weaker potency.

One assay relates to GSK-3α/β. Put plainly: IC50 towards inhibition of various kinases: GSK-3α/β. Format: biochemical.
The target in the next assay is Δ508F CFTR (Homo sapiens, UniProt P13569, DEL508-508). The note with it: WO 2006/042949; cited from earlier work.

Molecules are shown by their SMILES.

In turn, `CC[C@H](CO)Nc1nc(NCc2ccccc2)c2ncn(C(C)C)c2n1` [(R)-roscovitine, 2-(R)-(1-ethyl-2-hydroxyethylamino)-6-benzylamino-9-isopropylpurine, reference compound] yielded an IC50 in the assay on GSK-3α/β of 51 µM. Also, the “rescue of Δ508F CFTR plasma membrane translocation” value at Δ508F CFTR was “rescue some Δ508F CFTR plasma membrane translocation”.
